Experimental data: publication PMC5840146, “Structure-Activity Relationship Analysis of 3-Phenylcoumarin-Based Monoamine Oxidase B Inhibitors” (Frontiers in Chemistry, 2018)
Read-outs that look alike come from different tables or passages of the source. Structures were worked out from names or drawings and are uncertain.

The chains behind the UniProt entries cited, without tags or fusion partners.
UniProt P27338, whole entry: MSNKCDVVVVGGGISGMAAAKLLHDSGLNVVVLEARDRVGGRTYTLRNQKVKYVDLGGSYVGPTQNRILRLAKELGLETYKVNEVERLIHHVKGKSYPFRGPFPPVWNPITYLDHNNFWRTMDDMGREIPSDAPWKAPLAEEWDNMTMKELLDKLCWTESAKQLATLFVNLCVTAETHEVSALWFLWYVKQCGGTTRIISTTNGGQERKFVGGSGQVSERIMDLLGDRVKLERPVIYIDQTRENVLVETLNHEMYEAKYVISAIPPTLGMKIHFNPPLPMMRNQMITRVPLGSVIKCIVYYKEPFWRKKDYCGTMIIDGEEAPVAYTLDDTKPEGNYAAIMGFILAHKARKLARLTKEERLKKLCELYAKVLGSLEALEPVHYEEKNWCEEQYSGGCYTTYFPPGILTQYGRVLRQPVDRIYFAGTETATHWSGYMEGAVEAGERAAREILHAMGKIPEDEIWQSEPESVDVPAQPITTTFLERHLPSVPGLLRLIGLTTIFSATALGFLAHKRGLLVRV

What was measured:
[1] = biological target: T1, MAO-B (Homo sapiens, UniProt P27338); details: cited from earlier work; for pIC50: MAO-B; for IC50: read-out: MAO-B inhibition IC50
[2] = biological target: T1, MAO-B; assay: MAO-B inhibition of prior 3-phenylcoumarins (literature data); assay type: biochemical; details: LiPE = pIC50 - QPlogPo/w, literature IC50
[3] = from literature IC50 ref Santana et al., 2010
[4] = prior 3-phenylcoumarins ref Santana et al., 2010
[5] = from literature IC50 ref Viña et al., 2012a
[6] = prior 3-phenylcoumarins ref Viña et al., 2012a

Compound	pIC50 [1, 3]	IC50 [1, 4]	LiPE [2]	pIC50 [1, 5]	IC50 [1, 6]
COC(=O)N1C(=O)C=CC1=O	6.32	0.48 µM	3.21	–	–
COC(=O)C1CCN(C(=O)OC(C)(C)C)C1 (stereo not shown)	–	–	5.00	8.52	0.003 µM
COc1ccncc1[N+](=O)[O-]	6.68	0.21 µM	3.74	–	–
Cc1ccncc1[N+](=O)[O-]	6.19	0.64 µM	3.18	–	–
COC(=O)CC(F)(F)F	–	–	3.01	6.68	0.21 µM
O=C(NCCN1CCOCC1)c1ccc(Cl)cc1	–	–	4.53	–	–
O[C@@H](c1cc(C(F)(F)F)nc2c(C(F)(F)F)cccc12)[C@H]1CCCCN1	9.00	0.001 µM	5.35	–	–
COC(=O)[C@@H](O)c1ccccc1Cl	8.22	0.006 µM	4.49	–	–
COc1ccc(C(=O)O)c2ccccc12	–	–	4.79	8.52	0.003 µM
COC(=O)c1ccc(O)c(O)c1C	–	–	3.60	7.11	0.078 µM
COC(=O)Nc1nc2ccc(C(=O)c3ccccc3)cc2[nH]1	6.36	0.44 µM	3.33	–	–
Cn1ncc(C(=O)O)c1C(F)(F)F	–	–	3.67	6.82	0.15 µM
COc1c(O)cc2oc3cc(O)c(CC=C(C)C)c(O)c3c(=O)c2c1CC=C(C)C	–	–	2.88	6.82	0.15 µM
CCCc1nn(C)c(C(N)=O)c1[N+](=O)[O-]	–	–	2.35	5.97	1.06 µM
COc1ccc(CNc2nc(NCc3ccc(OC)cc3)c3ncn(C(C)C)c3n2)cc1	8.70	0.002 µM	4.97	–	–
Cc1ccc(C[C@H](N)C(=O)O)cc1	–	–	3.64	7.70	0.02 µM
